Source: article doi:10.1101/2025.08.25.672131
For at least one entry, the source does not settle the construct or the ends of the probe. A weaker result is weaker than the reference pair of the same experiment. For some of these results: At least one verdict rests on a figure or table, not on a statement of the authors. For some of these results: Tags and fusion partners may be left off the protein sequences shown.

By UniProt entry, the sequences of proteins in these tests, tags left out. Residues count along the entry.
UniProt P49715, 276-314, stated change not applied: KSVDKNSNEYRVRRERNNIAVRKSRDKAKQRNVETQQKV
UniProt P17676, 265-303, stated change not applied: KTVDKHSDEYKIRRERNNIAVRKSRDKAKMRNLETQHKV
UniProt Q16649, 67-105, stated change not applied: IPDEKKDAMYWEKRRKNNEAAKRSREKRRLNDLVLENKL
UniProt P01100, 131-169, stated change not applied: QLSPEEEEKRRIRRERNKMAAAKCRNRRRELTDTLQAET
UniProt P17535, 262-300, stated change not applied: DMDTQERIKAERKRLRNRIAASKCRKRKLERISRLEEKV

Key:
Test in all cases: fluorescence anisotropy
[1] = target: T1, ATF2 bZIP-ΔLZ (human) (UniProt P15336); conditions: Kd tens to hundreds of uM, value only in figure
T1 sequence (looked up, limits assumed): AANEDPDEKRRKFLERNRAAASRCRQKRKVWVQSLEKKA

[2] = target: MafG bZIP-ΔLZ (human) (UniProt O15525); conditions: Kd tens to hundreds of uM, value only in figure
[3] = target: CEBPa bZIP-ΔLZ (human) (UniProt P49715); conditions: Kd tens to hundreds of uM, value only in figure
[4] = target: CEBPb bZIP-ΔLZ (human) (UniProt P17676); conditions: Kd tens to hundreds of uM, value only in figure
[5] = target: NFIL3 bZIP-ΔLZ (human) (UniProt Q16649); conditions: Kd tens to hundreds of uM, value only in figure
[6] = target: Fos bZIP-ΔLZ (human) (UniProt P01100); conditions: Kd tens to hundreds of uM, value only in figure
[7] = target: JunD bZIP-ΔLZ (human) (UniProt P17535); conditions: Kd >50-fold above Jun, value only in figure

CCTGACGTCATCCG (double strand) [Alexa Fluor 488-CRE 14 bp (ATF2, MafG target)]
binding result [1]: binds more weakly
binding result [2]: binds more weakly

CCGGCCAATCTATT (double strand) [Alexa Fluor 488 target for CEBPa, CEBPb, NFIL3]
binding result [3]: binds more weakly
binding result [4]: binds more weakly
binding result [5]: binds more weakly

GGATGAGTCATTGG (double strand) [Alexa Fluor 488 target for Jun, JunD, Fos]
binding result [6]: binds more weakly
binding result [7]: binds more weakly
